This note sets out measurements from publication PMC4338318.

Assay [1] concerns the target HA-lipin 1α (UniProt Q14693). The assay is described as follows: atomic force microscopy (AFM); HA-lipin 1α isolated alone by anti-HA immunoaffinity from tsA 201 cells; tapping mode in air; particle volume against the volume expected from the mass; both purified.
The target of assay [2] is T1, FLAG-seipin, short translation (398 amino acids) (human), Q96G97.
T1 chain: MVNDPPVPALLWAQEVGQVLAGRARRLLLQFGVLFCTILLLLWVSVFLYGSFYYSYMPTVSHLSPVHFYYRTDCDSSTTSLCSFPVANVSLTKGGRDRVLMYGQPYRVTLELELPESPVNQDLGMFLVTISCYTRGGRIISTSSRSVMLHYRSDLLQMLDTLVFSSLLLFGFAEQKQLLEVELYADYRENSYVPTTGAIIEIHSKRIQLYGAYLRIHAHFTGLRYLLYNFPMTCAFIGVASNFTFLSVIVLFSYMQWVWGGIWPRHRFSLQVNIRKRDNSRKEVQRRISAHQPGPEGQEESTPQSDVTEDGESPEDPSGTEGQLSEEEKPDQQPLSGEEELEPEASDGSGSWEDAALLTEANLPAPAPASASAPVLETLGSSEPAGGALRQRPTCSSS
In words: co-IP; HEK293 cells co-transfected; ODG lysis buffer (50 mM ODG, 50 mM Tris pH 6.8, 150 mM NaCl, 1 mM EDTA); anti-FLAG agarose 2 h at 4 °C; elution with 3xFLAG peptide; immunoblot. As to conditions: remark: other sources report otherwise. In general terms: Immunoblotting shows a protein as a band on a membrane.

Results are given in words; binding and its absence hold for the method and conditions named. For some assays here: In cells and extracts the contact can be indirect. Some entries that bind do so weakly or less than the wild type. Tags and fused reporters may be left off the sequences shown.

B1: HA-lipin 1α (enzyme, UniProt Q14693 1-890)
chain: MNYVGQLAGQVFVTVKELYKGLNPATLSGCIDIIVIRQPNGNLQCSPFHVRFGKMGVLRSREKVVDIEINGESVDLHMKLGDNGEAFFVQETDNDQEVIPMHLATSPILSEGASRMECQLKRGSVDRMRGLDPSTPAQVIAPSETPSSSSVVKKRRKRRRKSQLDSLKRDDNMNTSEDEDMFPIEMSSDEAMELLESSRTLPNDIPPFQDDIPEENLSLAVIYPQSASYPNSDREWSPTPSPSGSRPSTPKSDSELVSKSTERTGQKNPEMLWLWGELPQAAKSSSPHKMKESSPLSSRKICDKSHFQAIHSESSDTFSDQSPTLVGGALLDQNKPQTEMQFVNEEDLETLGAAAPLLPMIEELKPPSASVVQTANKTDSPSRKRDKRSRHLGADGVYLDDLTDMDPEVAALYFPKNGDPSGLAKHASDNGARSANQSPQSVGSSGVDSGVESTSDGLRDLPSIAISLCGGLSDHREITKDAFLEQAVSYQQFVDNPAIIDDPNLVVKIGSKYYNWTTAAPLLLAMQAFQKPLPKATVESIMRDKMPKKGGRWWFSWRGRNTTIKEESKPEQCLAGKAHSTGEQPPQLSLATRVKHESSSSDEERAAAKPSNAGHLPLLPNVSYKKTLRLTSEQLKSLKLKNGPNDVVFSVTTQYQGTCRCEGTIYLWNWDDKVIISDIDGTITRSDTLGHILPTLGKDWTHQGIAKLYHKVSQNGYKFLYCSARAIGMADMTRGYLHWVNERGTVLPQGPLLLSPSSLFSALHREVIEKKPEKFKVQCLTDIKNLFFPNTEPFYAAFGNRPADVYSYKQVGVSLNRIFTVNPKGELVQEHAKTNISSYVRLCEVVDHVFPLLKRSHSSDFPCSDTFSNFTFWREPLPPFENQDIHSASA
As for B1, in assay [1], the binding result is on record as “no binding”.

B2: AGPAT2-Myc (Myc-tagged human 1-acylglycerol-3-phosphate O-acyltransferase 2), O15120 24-278 (enzyme)
chain: AEFYAKVALYCALCFTVSAVASLVCLLRHGGRTVENMSIIGWFVRSFKYFYGLRFEVRDPRRLQEARPCVIVSNHQSILDMMGLMEVLPERCVQIAKRELLFLGPVGLIMYLGGVFFINRQRSSTAMTVMADLGERMVRENLKVWIYPEGTRNDNGDLLPFKKGAFYLAVQAQVPIVPVVYSSFSSFYNTKKKFFTSGTVTVQVLEAIPTSGLTAADVPALVDTCHRAMRTTFLHISKTPQENGATAGSGVQPAQ
Take B2: the binding entry in assay [2] was “binds”.
